This is an account of results in the OPERA property sets (Mansouri et al. 2018).

A word on the logP: it is a log measure of how a compound divides between an organic and an aqueous phase. Lower therefore signals a more hydrophilic compound. Consider `NCCCC(N)C(=O)O` (stereo unspecified), for which the logP was -4.22.
